Assay results: PubChem BioAssay AID493014 (National Center for Advancing Translational Sciences (NCATS), 2011)
The other results are listed elsewhere or left out. These are further read-outs of the screen, such as a control signal, another cell line or another target. No call is given for them. Compounds called inactive in the main read-out are mostly missing here. Words in brackets tell the shape of the fitted curve; partial curves, single points and poor fits give uncertain potencies.

Assay: qHTS Assay to Find Inhibitors of Chronic Active B-Cell Receptor Signaling
Details: ABC-DLBCL IkBa-CBG/CBR reporter, luminescence ratio (green luciferase fused to IkBa over red control in TMD8 lymphoma cells), 4 h
Method in brief: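 Compounds up to 46 uM were incubated four hours with TMD8 cells whose green CBG68 luciferase is fused to IkappaBalpha; red CBR luminescence normalised the signal, and concentration-effect curves were fitted to fusion, red and ratio data.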

[1] = measured here: CBR red luminescence, cell number
[2] = measured here: IkBa-CBG green luminescence

With `CCCCSc1nc(C)c(C(C)=O)cc1C#N` the AC50 [1] was 10 µM [rising, partial curve, poor fit] and the AC50 [2] was 11.2 µM [falling, single point].

With `CC1=NN(C(=O)c2cccnc2)C(O)(C(F)(F)F)C1` (stereo not drawn) the AC50 [1] was 14.1 µM [falling, single point].

With `CC1(c2nnc(-c3ccc(F)cc3)o2)CC(c2cccc(Cl)c2)=NO1` (stereo not drawn) the AC50 [1] was 5.62 µM [rising, partial curve, poor fit].

In the case of `CN1CCN(C(=S)C(=O)Nc2ccc(Br)cc2)CC1`, the AC50 [1] is reported as 22.4 µM [rising, single point].

In the case of `O=C(Nc1nc2ccccc2[nH]1)c1cccs1`, the AC50 [1] is reported as 3.98 µM [falling, full curve, poor fit].

With `O=C(COc1ccccc1F)NNC(=O)c1ccc(F)c(S(=O)(=O)N2CCOCC2)c1` the AC50 [1] was 0.082 µM [rising, full curve, poor fit].

In the case of `COc1ccccc1NC(=O)CC1C(=O)Nc2c1c(=O)n(C)c(=O)n2C` (stereo not drawn), the AC50 [1] is reported as 0.631 µM [falling, full curve, poor fit].

In the case of `COc1ccc(CCNC(=O)c2[nH]c(C)c(C(C)=O)c2C)cc1`, the AC50 [1] is reported as 29.1 µM [rising, single point].

For `C=CCn1c(=O)c2c(nc3n2CC(C)CN3Cc2ccccc2)n(C)c1=O` (stereo not drawn), the AC50 [1] was 35.5 µM [rising, single point].

With `Nc1ccc(C(=O)OC2CCOC2=O)cc1[N+](=O)[O-]` (stereo not drawn) the AC50 [1] was 6.51 µM [rising, single point].

For `Cc1ccccc1OCC(O)CN1CCN(CC(O)COc2ccccc2C)C(C)C1` (stereo not drawn), the AC50 [1] was 17.8 µM [falling, single point].

In the case of `CC(=O)[C@@H]1[C@@H](C(=O)c2ccc(C)cc2)[C@]2(C(=O)Nc3ccccc32)[C@H]2C=Cc3cc(F)ccc3N12`, the AC50 [1] is reported as 1.26 µM [falling, full curve].

With `COc1ccc(-n2nc3c(N4CCCC(C(=O)NCc5ccccc5C)C4)nnc(C)c3c2C)cc1` (stereo not drawn) the AC50 [1] was 29.1 µM [falling, single point] and the AC50 [2] was 25.9 µM [rising, partial curve, poor fit].

With `O=C(c1ccc(CS(=O)Cc2ccccc2Cl)o1)N1CCN(C2CCCCC2)CC1` (stereo not drawn) the AC50 [1] was 0.355 µM [rising, partial curve, poor fit].

With `Cc1cc(C(=O)Cn2cc(C(F)(F)F)ccc2=O)c(C)n1-c1ccccc1` the AC50 [1] was 8.2 µM [rising, partial curve].

In the case of `CC(C)CNC(=O)CC(c1ccccc1)c1c(O)ccc2ccccc12` (stereo not drawn), the AC50 [1] is reported as 22.4 µM [falling, single point].

In the case of `CC(=O)Nc1ccc2nc(-c3ccccc3)cn2c1`, the AC50 [1] is reported as 29.1 µM [falling, single point].

For `CC(C)CN1C(=O)NC(NC(=O)c2cccs2)(C(F)(F)F)C1=O` (stereo not drawn), the AC50 [1] was 35.5 µM [rising, single point].

In the case of `CCCCC(C)(O)C/C=C/[C@H]1[C@H](O)CC(=O)[C@@H]1CCCCCCC(=O)OC` (stereo partly drawn), the AC50 [1] is reported as 1.16 µM [rising, full curve] and the AC50 [2] is reported as 2.31 µM [falling, full curve].

For `FC(F)(F)c1nnc(-c2ccccc2)nc1Oc1ccc(Cl)cc1Cl`, the AC50 [1] was 20 µM [falling, single point].

In the case of `O=C(CN1C(=O)C2CC=CCC2C1=O)Nc1nc2ccccc2s1` (stereo not drawn), the AC50 [1] is reported as 8.91 µM [falling, partial curve] and the AC50 [2] is reported as 7.08 µM [rising, partial curve, poor fit].

For `O=[N+]([O-])c1ccc(OCc2cnc(Cl)s2)c([N+](=O)[O-])c1`, the AC50 [1] was 35.5 µM [rising, single point].

For `Cc1nc2ccccc2c2oc(C(=O)NCc3ccc4c(c3)OCO4)cc12`, the AC50 [1] was 11.2 µM [falling, partial curve] and the AC50 [2] was 20.6 µM [rising, partial curve, poor fit].

For `CC(CNC(=O)C(C)(C)C)NC(=O)C(C)(C)C` (stereo not drawn), the AC50 [1] was 4.11 µM [rising, full curve].

For `COc1ccc(-n2cc(-c3ccccc3)nc2SC)cc1`, the AC50 [1] was 0.326 µM [rising, full curve, poor fit].

For `COC(=O)C(NNc1ccccc1)(NC(=O)c1ccc(F)cc1)C(F)(F)F` (stereo not drawn), the AC50 [1] was 35.5 µM [rising, single point].

With `c1ccc(CNc2ccc(CNc3ncn[nH]3)cc2)cc1` the AC50 [1] was 29.1 µM [rising, single point].

In the case of `COc1cc(/C=C2\COC/C(=C\c3cc(OC)c(OC)c(OC)c3)C2=O)cc(OC)c1OC`, the AC50 [1] is reported as 0.112 µM [rising, full curve, poor fit] and the AC50 [2] is reported as 2.24 µM [falling, partial curve, poor fit].

In the case of `O=C(O)CN1C(=O)/C(=C\c2cc(Br)ccc2OCc2ccc(Cl)cc2)SC1=S`, the AC50 [1] is reported as 1 µM [rising, full curve, poor fit].

For `O=C(NCc1ccccc1)c1cccc(S(=O)(=O)N2CCOCC2)c1`, the AC50 [1] was 3.66 µM [rising, full curve, poor fit].

For `Cc1ccc(C)c(NC(=O)CN(C)C(=O)c2ccc3ncsc3c2)c1`, the AC50 [1] was 10.3 µM [falling, partial curve].

With `CC(C)c1ccc(/C=N/NC(=O)c2ccccc2Cl)cc1` the AC50 [1] was 12.6 µM [falling, partial curve] and the AC50 [2] was 15.8 µM [falling, partial curve].

For `Brc1cccc(-c2nnc(SCc3nc4ccccc4[nH]3)o2)c1`, the AC50 [1] was 31.6 µM [falling, single point].

In the case of `CCOC(=O)N1CCN(C(=O)c2ccc(N3C(=O)CCC3=O)cc2)CC1`, the AC50 [1] is reported as 29.1 µM [rising, single point].

With `O=C(Nc1nnc(-c2ccc3c(c2)CCCC3)o1)C1COc2ccccc2O1` (stereo not drawn) the AC50 [1] was 0.58 µM [rising, full curve, poor fit].

With `Cc1ccc(C)c(C(=O)OCC(=O)Nc2cccc(S(=O)(=O)N3CCCCC3)c2)c1` the AC50 [1] was 1.46 µM [falling, partial curve, poor fit].

With `COc1ccc(Nc2nnc(SCC(=O)NC3CCS(=O)(=O)C3)s2)cc1` (stereo not drawn) the AC50 [1] was 32.6 µM [rising, partial curve, poor fit].

In the case of `O=c1[nH]c(=S)[nH]c2sc3c(c12)CCCCCC3`, the AC50 [1] is reported as 35.5 µM [rising, partial curve, poor fit].

With `CCN1C(=O)/C(=C/c2ccc(N3CCCC3)cc2)NC1=S` the AC50 [1] was 2.91 µM [rising, full curve, poor fit].

In the case of `O=C(CNc1ccccc1C(=O)O)c1ccccc1`, the AC50 [1] is reported as 35.5 µM [falling, single point].

In the case of `COc1cccc(Nc2ccc(N3CCCCC3)cc2)c1OC`, the AC50 [1] is reported as 0.58 µM [rising, partial curve, poor fit].

With `CCCN(CCC)S(=O)(=O)c1ccc(C(=O)N2CCC(=O)c3ccccc32)cc1` the AC50 [1] was 2.51 µM [rising, partial curve].

In the case of `COc1cc2c(cc1OC)C(c1ccc(-c3ccc(Cl)c(Cl)c3)o1)=NCC2`, the AC50 [1] is reported as 23.1 µM [falling, single point].

In the case of `COc1ccc(OC)c(NC(=S)NCC(c2cccnc2)N2CCOCC2)c1` (stereo not drawn), the AC50 [1] is reported as 3.55 µM [falling, single point].

For `Cc1ccc(/C(O)=C2/C(=O)C(=O)N(CCN3CCOCC3)C2c2ccccn2)cc1` (stereo not drawn), the AC50 [1] was 0.092 µM [rising, full curve, poor fit].

In the case of `CC1(c2ccccc2)NC(=O)N(CC(=O)Nc2ccc3c(c2)OCO3)C1=O` (stereo not drawn), the AC50 [1] is reported as 0.058 µM [rising, full curve, poor fit].

For `C[C@@H]1CN([C@H](C)CO)C(=O)c2cc(NC(=O)Cc3cn(C)c4ccccc34)ccc2O[C@H]1CN(C)S(=O)(=O)c1ccc(F)cc1`, the AC50 [1] was 0.092 µM [rising, full curve, poor fit].

With `CCCCOc1ccc(C(=O)N/N=C/c2ccc(OCCN3CCCCC3)c(OC)c2)cc1` the AC50 [1] was 6.51 µM [falling, single point] and the AC50 [2] was 0.92 µM [rising, full curve, poor fit].

In the case of `Cc1ccc(C(=O)COC(=O)CNC(=O)c2ccccc2)s1`, the AC50 [1] is reported as 29.1 µM [rising, single point].

In the case of `COc1cc(/C=C2\SC(=Nc3ccccc3OC)NC2=O)ccc1O`, the AC50 [1] is reported as 0.316 µM [falling, full curve, poor fit] and the AC50 [2] is reported as 0.562 µM [rising, full curve, poor fit].

In the case of `COc1ccc(OC)c(Nc2nc(-c3sc(NC(=O)C(C)(C)C)nc3C)cs2)c1`, the AC50 [1] is reported as 3.55 µM [falling, partial curve, poor fit].

In the case of `O=C1/C(=C\c2ccc(Br)cc2)SC(=S)N1NS(=O)(=O)c1ccccc1`, the AC50 [1] is reported as 0.316 µM [rising, full curve, poor fit].

In the case of `O=C(Nc1ccc(N2CCOCC2)c(Cl)c1)c1ccc([N+](=O)[O-])o1`, the AC50 [1] is reported as 3.16 µM [falling, full curve, poor fit].

In the case of `CCOC(=O)Nc1nc(-c2ccc(F)cc2F)cs1`, the AC50 [1] is reported as 6.51 µM [rising, single point].

In the case of `CNS(=O)(=O)c1cc(Cl)ccc1Sc1ccccc1C(=O)O`, the AC50 [1] is reported as 35.5 µM [rising, single point].

In the case of `O=C(Nc1ccccc1C(=O)N1CCN(CCO)CC1)c1cccc([N+](=O)[O-])c1`, the AC50 [1] is reported as 35.5 µM [falling, single point].

With `O=C(NNC1=NS(=O)(=O)c2ccccc21)c1ccccc1Cl` the AC50 [1] was 10 µM [falling, partial curve].

For `O=C(Nc1ccccc1Cl)c1cccc(COc2cc(Cl)ccc2Cl)c1`, the AC50 [1] was 23.1 µM [rising, partial curve, poor fit].

With `O=C(O)CN1C(=O)/C(=C\c2ccccc2OCc2ccc(Cl)cc2Cl)SC1=S` the AC50 [1] was 17.8 µM [falling, single point].
